The experiment concerns the target T1, scavenger receptor B1 (SRB1) on Huh-7 cells (human (endogenous in Huh-7)) (UniProt Q8WTV0).
T1 sequence: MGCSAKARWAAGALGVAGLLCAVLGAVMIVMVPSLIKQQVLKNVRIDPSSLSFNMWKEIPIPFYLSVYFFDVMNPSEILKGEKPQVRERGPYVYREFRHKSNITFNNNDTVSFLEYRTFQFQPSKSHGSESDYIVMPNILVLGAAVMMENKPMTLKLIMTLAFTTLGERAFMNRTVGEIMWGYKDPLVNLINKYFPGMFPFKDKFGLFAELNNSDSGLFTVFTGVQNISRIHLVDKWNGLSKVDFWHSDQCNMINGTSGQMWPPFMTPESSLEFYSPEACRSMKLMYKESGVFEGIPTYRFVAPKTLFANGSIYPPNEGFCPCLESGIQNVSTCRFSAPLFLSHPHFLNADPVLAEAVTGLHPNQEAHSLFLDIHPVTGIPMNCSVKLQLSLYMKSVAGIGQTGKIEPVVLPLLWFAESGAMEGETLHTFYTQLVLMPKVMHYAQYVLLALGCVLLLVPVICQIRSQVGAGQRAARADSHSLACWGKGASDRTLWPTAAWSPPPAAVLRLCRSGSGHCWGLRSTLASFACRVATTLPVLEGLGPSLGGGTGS
In words: proximity ligation.

Results are given in words; binding and its absence hold for the method and conditions named. Binding seen in cells or lysates may run through a third protein. Binding calls can cover weak binding; strength is not graded here.

As to “recombinant Zika virus non-structural protein 1 (ZIKV NS1)”, the binding entry is “binds”.

In the case of “recombinant dengue virus non-structural protein 1 (DENV NS1)”, the binding entry is “binds”.

The values are drawn from paper doi:10.1101/871988.
